# Record: PubChem BioAssay AID504804 (Drosophila RNAi Screening Center, 2011)
# Screen: 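Knock-downs shielding fly cells from apoptosis caused by DNA damage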 (primary screen)
# System: Drosophila Kc cells
# Knock-down reagent: long dsRNA against Drosophila genes, 0.5 µg dsRNA per well
# Duration: 96 h (48 h knock-down, then 48 h drug)
# Conditions: doxorubicin 5 µg/ml for 48 h, added 48 h after dsRNA
# Measured: 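Viability measured as cellular ATP by luminescence after 48 h knock-down then 48 h doxorubicin at 5 µg/ml; unnormalised plate counts for each replicate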
# Reading the numbers: raw ATP luminescence: higher = more viable cells, protection from doxorubicin
# Rule for the call: 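z-score of 2 or more over plate mean in both duplicates, retained only when retests and separate dsRNAs confirm the protection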
# In all, the deposit lists about 19,000 reagents; below is a random part of those that have a named target and a result. Of all reagents, 47 (0.25%) got an active call. 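Signals are raw, not normalised; exact z-scores behind calls not deposited; actives needed confirmation, so some wells reaching 2 SD are inactive.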 A plus sign joins genes that one reagent is predicted to hit. Reagent sequences are not shown.
Target gene,amplicon,"raw ATP luminescence, replicate 1","raw ATP luminescence, replicate 2",Call
CG33285 (GeneID 2768988),DRSC11463,60673,57763,inactive
SmydA-5 (GeneID 35538),DRSC04867,38747,47963,inactive
Cph (GeneID 31660),DRSC17507,1.66e5,1.91e5,inactive
Cph (GeneID 31660),DRSC18434,28490,29610,inactive
jumu (GeneID 41265),DRSC16651,52340,54293,inactive
INPP5E (GeneID 39404),DRSC09723,56243,59783,inactive
CG6414 (GeneID 31352),DRSC18401,25070,36260,inactive
CG10348 (GeneID 35132),DRSC02043,39107,46237,inactive
Dus4 (GeneID 35179),DRSC02066,96487,79203,inactive
CG9010 (GeneID 36904),DRSC07320,69107,62323,inactive
snRNA:U1:95Cc (GeneID 3772462),DRSC13640,46040,48797,inactive
Cep164 (GeneID 32563),DRSC20163,3.51e5,2.98e5,inactive
DCTN2-p50 (GeneID 44086),DRSC07132,54423,58860,inactive
CG34135 (GeneID 4379850),DRSC12702,27963,54773,inactive
MED27 (GeneID 40696),DRSC12205,62967,61870,inactive
CG10907 (GeneID 39331),DRSC09804,91703,72617,inactive
Erasp (GeneID 246448),DRSC07111,65280,72760,inactive
Tm2 (GeneID 41853),DRSC16887,80040,61330,inactive
CG9826 (GeneID 37625),DRSC04570,52327,70893,inactive
CG32017 (GeneID 317823),DRSC17183,1.72e5,1.68e5,inactive
CG4291 (GeneID 33264),DRSC00650,1.09e5,71987,inactive
AOX2 (GeneID 41895),DRSC15338,77660,59820,inactive
CG14834 (GeneID 38814),DRSC10204,63420,66777,inactive
RhoGAP1A (GeneID 5740235),DRSC20649,3.57e5,3.51e5,inactive
RhoGAP1A (GeneID 5740235),DRSC20651,3.88e5,3.65e5,inactive
Dhc64C (GeneID 38580),DRSC08656,38770,39447,inactive
GATAe (GeneID 41945),DRSC14223,30913,57207,inactive
RpL27A (GeneID 33654),DRSC00781,16283,13757,inactive
CG33489 (GeneID 2768971),DRSC10588,70827,52390,inactive
mTerf3 (GeneID 40279),DRSC11759,39893,44013,inactive
Nepl19 (GeneID 43411),DRSC14875,1.89e5,2.35e5,inactive
Cbp20 (GeneID 42166),DRSC16601,39960,38780,inactive
CG2121 (GeneID 35814),DRSC06819,76463,61770,inactive
CG2121 (GeneID 35814),DRSC06820,49637,78447,inactive
bsf (GeneID 35100),DRSC02035,1.00e5,65340,inactive
TotZ (GeneID 117459),DRSC13450,1.68e5,1.90e5,inactive
RAF2 (GeneID 39821),DRSC10443,26923,22960,inactive
RAF2 (GeneID 39821),DRSC10454,57660,50300,inactive
Vps13 (GeneID 35693),DRSC06817,47457,83180,inactive
CG5641 (GeneID 41529),DRSC15852,50040,27270,inactive
Ibf1 (GeneID 41103),DRSC16419,36743,45417,inactive
Patr-1 (GeneID 42058),DRSC14159,31540,31960,inactive
RNaseX25 (GeneID 38885),DRSC11259,39387,37497,inactive
CG1136 (GeneID 38479),DRSC08184,36700,41067,inactive
CG7183 (GeneID 42181),DRSC16210,38577,34373,inactive
CG42824 + CG42823,DRSC13230,2.13e5,2.62e5,inactive
Gmd (GeneID 33716),DRSC03119,1.02e5,63913,inactive
CG10365 (GeneID 42801),DRSC14234,47670,66140,inactive
Dph1 (GeneID 39317),DRSC09851,51910,38333,inactive
RpL29 (GeneID 37430),DRSC04650,66080,59420,inactive

No new results follow: 6 of the entries above.
Target gene,amplicon,"raw ATP luminescence, replicate 1","raw ATP luminescence, replicate 2",Call
Dus4 (GeneID 35179),DRSC02066,96487,79203,inactive
CG9010 (GeneID 36904),DRSC07320,69107,62323,inactive
snRNA:U1:95Cc (GeneID 3772462),DRSC13640,46040,48797,inactive
Cep164 (GeneID 32563),DRSC20163,3.51e5,2.98e5,inactive
DCTN2-p50 (GeneID 44086),DRSC07132,54423,58860,inactive
CG34135 (GeneID 4379850),DRSC12702,27963,54773,inactive

Additional entries follow:
Target gene,amplicon,"raw ATP luminescence, replicate 1","raw ATP luminescence, replicate 2",Call
CG13312 (GeneID 39010),DRSC09983,74447,83140,inactive
Cul3 (GeneID 34896),DRSC03537,92200,56870,inactive
Muc68E (GeneID 2768990),DRSC09146,1.58e5,1.98e5,inactive
CG8260 (GeneID 32521),DRSC20098,3.02e5,2.88e5,inactive
Tbcd (GeneID 33389),DRSC00273,1.00e5,63940,inactive
sisA (GeneID 32068),DRSC20374,3.17e5,2.70e5,inactive
CG12355 (GeneID 2768954),DRSC09381,1.89e5,1.67e5,inactive
CG12355 (GeneID 2768954),DRSC09883,43467,37437,inactive
CG32813 (GeneID 31089),DRSC17948,48330,56620,inactive
TwdlX (GeneID 318094),DRSC19151,1.95e5,2.34e5,inactive
Cog6 (GeneID 35953),DRSC06806,57167,45030,inactive
GstD2 (GeneID 48335),DRSC16684,65390,55677,inactive
Cht7 + tRNA:Cys-GCA-1-4 + tRNA:Lys-CTT-1-13,DRSC08021,1.23e5,1.23e5,inactive
CG17625 (GeneID 42678),DRSC15249,50330,64150,inactive
CG2747 (GeneID 40950),DRSC15450,53067,56557,inactive
Gug (GeneID 46156),DRSC11179,92523,92157,inactive
CG14598 (GeneID 40893),DRSC12541,70063,59927,inactive
dbo (GeneID 53556),DRSC11339,66003,53010,inactive
CG13287 (GeneID 38660),DRSC09961,1.22e5,99280,inactive
CG10600 (GeneID 35142),DRSC02074,1.03e5,86427,inactive
CG8671 (GeneID 35400),DRSC03102,62453,55000,inactive
CG8671 (GeneID 35400),DRSC03103,81927,60760,inactive
CG15499 (retired record) (GeneID 42546),DRSC15041,50190,55780,inactive
mRpL30 (GeneID 31398),DRSC18416,45860,50020,inactive
l(2)k09848 (GeneID 35536),DRSC04894,61467,65963,inactive
CG34012 (GeneID 3885632),DRSC09089,1.77e5,1.24e5,inactive
CG2065 (GeneID 35707),DRSC06813,43240,97820,inactive
CG12992 (GeneID 32733),DRSC19512,2.75e5,2.81e5,inactive
CG34242 (GeneID 5740417),DRSC09185,1.57e5,1.40e5,inactive
px (GeneID 37573),DRSC04708,32747,39407,inactive
CG14636 (GeneID 40526),DRSC12223,61993,65107,inactive
Or24a (GeneID 33623),DRSC00768,28747,25897,inactive
Act42A (GeneID 35526),DRSC04835,52633,46280,inactive
CG14071 (GeneID 34507),DRSC02374,50047,86073,inactive
Tbc1d8-9 (GeneID 40361),DRSC11820,24353,21990,inactive
GckIII (GeneID 42064),DRSC15729,46500,57550,inactive
CG13325 (GeneID 36437),DRSC06362,51890,55873,inactive
fwe (GeneID 39720),DRSC09398,87917,88203,inactive
fwe (GeneID 39720),DRSC10594,26603,20030,inactive
nAChRalpha4 (GeneID 40521),DRSC11925,36747,55643,inactive
CG8135 + BBIP1,DRSC12739,58523,64897,inactive
CG8135 + BBIP1,DRSC16384,49443,49660,inactive
Ddx1 (GeneID 40457),DRSC11862,22557,24370,inactive
CG5199 (GeneID 40265),DRSC11770,68797,65100,inactive
Or59c (GeneID 37716),DRSC04633,40137,52337,inactive
TAF1C-like (GeneID 37450),DRSC04073,90023,63717,inactive
CG14292 (GeneID 42264),DRSC14772,32010,27160,inactive
Pif1A + Pif1B,DRSC14142,55127,53993,inactive
Pif1A + Pif1B,DRSC14380,48860,24663,inactive
Pif1A + Pif1B,DRSC14381,43553,66063,inactive
CAH2 (GeneID 39390),DRSC10746,68640,67607,inactive
Polr2E (GeneID 36160),DRSC06100,35307,52573,inactive
CG34347 (GeneID 5740668),DRSC14047,2.21e5,2.07e5,inactive
CG34347 (GeneID 5740668),DRSC14305,45700,50430,inactive
CG34347 (GeneID 5740668),DRSC15104,27090,39270,inactive
CG34347 (GeneID 5740668),DRSC15105,19023,20577,inactive
CG5056 (GeneID 34406),DRSC02808,58100,86673,inactive
